Experimental findings from patent US12564622B2, “Preventing cytokine release syndrome” (priority 2017, dated 2026) are described below.

The structures appear in SMILES notation.

For the series, the system named is Raji-bearing NSGS mice with low tumour burden treated with hCART19. The series can be described thus: hCART19 treatment of Raji-bearing NSGS mice, low tumour burden. In kind it is in vivo, mouse (NSGS). From the text: Six to eight weeks old female NSG-SGM3 (NSGS) mice (NOD.Cg-Prkdcscid Il2rgtm1WjlTg (CMV-IL3, CSF2, KITLG) 1Eav/MloySzJ, Stock #013062) were purchased from the Jackson Laboratory. Raji cells were transfected with a luciferase construct via lentivirus to create Raji-luc cells. NSGS is a triple transgenic strain expressing human IL3, GM-CSF and SCF combine the features of the highly immunodeficient NOD scid gamma (NSG) mouse. One day before the injection of Raji cells, mice were irradiated at a dose of 2 Gy in a CIXD Xstahl device. In high tumor burden experiments in FIG. 5, 10^6 Raji-luc cells were injected IV via tail vein. Six days later, tumor loads were assessed using a Xenogen instrument and 15×10^6 hCART19 cells or untransduced T-cells were injected IV. In low tumor burden experiments in FIG. 6, 2×10^5 Raji-luc cells were injected IV via tail vein. Four days later, tumor loads were assessed using a Xenogen instrument and 15×10^6 hCART19 cells were injected IV. Metyrosine was injected IP at 60 mg/kg/day for three days before the hCART19 injection. On the day of CART19 injection, a fourth dose of 60 mg/kg was given IP and the mice were subsequently injected four more times at daily intervals at 30 mg/kg.

Regarding `CC[C@H](C)[C@@H]1NC(=O)[C@H](CCCNC(=N)N)NC(=O)[C@H](CC(=O)O)NC(=O)[C@H](CCSC)NC(=O)[C@H](CCCNC(=N)N)NC(=O)CNC(=O)CNC(=O)[C@H](Cc2ccccc2)NC(=O)[C@@H](NC(=O)[C@H](CO)NC(=O)[C@H](CO)NC(=O)[C@H](CCCNC(=N)N)NC(=O)[C@H](CCCNC(=N)N)NC(=O)[C@H](CC(C)C)NC(=O)[C@@H](N)CO)CSSC[C@@H](C(=O)N[C@@H](CC(N)=O)C(=O)N[C@@H](CO)C(=O)N[C@@H](Cc2ccccc2)C(=O)N[C@@H](CCCNC(=N)N)C(=O)N[C@@H](Cc2ccc(O)cc2)C(=O)O)NC(=O)CNC(=O)[C@H](CC(C)C)NC(=O)CNC(=O)[C@H](CO)NC(=O)[C@H](CCC(N)=O)NC(=O)[C@H](C)NC(=O)CNC1=O` [ANP, atrial natriuretic peptide], the “in vivo CART cell expansion or tumor clearance” value is on record as “Neither metyrosine nor ANP substantially interfered”.
